These results are taken from the supplement of paper PMC9578143, “Small-Molecule Ebselen Binds to YTHDF Proteins Interfering with the Recognition of N^6-Methyladenosine-Modified RNAs” (ACS Pharmacology & Translational Science, 2022).

This is one part of the list. Plates or batches differ in their baseline, so values are only roughly comparable.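 Hits were defined as a z-score below −3.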

The experiment concerns the target T1, YTHDF1 YTH domain (aa 365-554) (UniProt Q9BYJ9).
T1 sequence (whole entry): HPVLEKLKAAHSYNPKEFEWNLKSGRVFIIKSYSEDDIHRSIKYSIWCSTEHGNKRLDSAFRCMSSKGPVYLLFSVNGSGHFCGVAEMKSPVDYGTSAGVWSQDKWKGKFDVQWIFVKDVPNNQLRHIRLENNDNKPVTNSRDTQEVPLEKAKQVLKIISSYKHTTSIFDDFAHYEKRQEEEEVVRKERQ
Kind of experiment: tryptophan fluorescence intensity z-score (mean); higher = higher fluorescence, less quenching (negative = binding / quenching). To be noted: 10 µM.
Regarding `COC(=O)C1=CO[C@@H](O[C@@H]2O[C@H](CO)[C@@H](O)[C@H](O)[C@H]2O)[C@@H]2[C@@H](C)[C@@H](O)C[C@H]12` (plate: M 19-20), the “tryptophan fluorescence intensity z-score” value is inactive: 0.178.
To `C=C1C[C@H]2[C@@H]3C=C(C)C4=CC(=O)CC[C@]4(C)[C@H]3CC[C@]2(C)[C@@]1(OC(C)=O)C(C)=O` (plate: M 11-12) belongs inactive: 0.126; to `NC(C(=O)O)C(O)C(=O)O` (stereo not drawn) [d,l-threo-3-HYDROXYASPARTICACID] (plate: M 17-18), inactive: 0.216; to `Cn1nnnc1SCC1=C(C(=O)O)N2C(=O)[C@@H](NC(=O)[C@H](O)c3ccccc3)[C@H]2SC1` (plate: M 7-8), inactive: 0.133.
To `CCC[C@H](N[C@@H](C)C(=O)N1[C@H](C(=O)O)C[C@@H]2CCCC[C@@H]21)C(=O)OCC` (plate: M 9-10) belongs inactive: 0.098.
To `COc1ccc(NS(=O)(=O)c2ccc(N)cc2)nn1` (plate: M 7-8) belongs inactive: -0.365; to `Nc1ccc(C(=O)NCC(=O)O)cc1` (plate: M 7-8), inactive: 0.558.
Turning to `CC1(C)OC(=O)NC1=O` (plate: M 1-2), the “tryptophan fluorescence intensity z-score” value is inactive: 0.482.
To `COc1cc(/C=C/C(=O)O)cc(OC)c1OC` (plate: M 17-18) belongs inactive: 0.135; to `Nc1ccc(S(=O)(=O)c2ccc(N)cc2)cc1` (plate: M 1-2), inactive: -0.387; to `OC[C@H]1O[C@@H](Oc2ccc(O)cc2)[C@H](O)[C@@H](O)[C@@H]1O` (plate: M 17-18), inactive: 0.583.
Regarding `OCCN1CCN(CCCN2c3ccccc3Sc3ccc(Cl)cc32)CC1` (plate: M 9-10), the “tryptophan fluorescence intensity z-score” value was inactive: -0.204.
In the case of `CN(C)CCc1c[nH]c2ccc(Cn3cncn3)cc12` (plate: M 9-10), the “tryptophan fluorescence intensity z-score” value is inactive: 0.221.
As to `CCN1CCN(C(=O)N[C@@H](C(=O)N[C@@H]2C(=O)N3[C@@H]2SC(C)(C)[C@@H]3C(=O)O)c2ccccc2)C(=O)C1=O` (plate: M 5-6), the “tryptophan fluorescence intensity z-score” value is inactive: 0.306.
To `C/C1=C\CCC(=O)C2CC(C)(C)C2CC1` (stereo not given) (plate: M 21-22) belongs inactive: 0.322; to `CC(=O)Oc1cccc(O)c1` (plate: M 9-10), inactive: -0.386.
For the compound `O=C(NCO)c1cccnc1` (plate: M 23-24), the “tryptophan fluorescence intensity z-score” value is inactive: 0.253.
To `CO[C@@H]1[C@@H](OC(N)=O)[C@@H](O)[C@H](Oc2ccc3c(O)c(NC(=O)c4ccc(O)c(CC=C(C)C)c4)c(=O)oc3c2C)OC1(C)C` (plate: M 3-4) belongs inactive: -0.0678; to `NC(=O)N/N=C/c1ccc([N+](=O)[O-])o1` (plate: M 3-4), inactive: -0.257; to `CN1CCCC(n2nc(Cc3ccc(Cl)cc3)c3ccccc3c2=O)CC1` (stereo not given) (plate: M 9-10), inactive: -0.285.
Take `O=C(CNC(=O)c1ccc(Cl)cc1)NO` (plate: M 11-12): the “tryptophan fluorescence intensity z-score” value is inactive: -0.329.
To `CC(=O)N[C@@H](CCC(=O)O)C(=O)O` (plate: M 23-24) belongs inactive: 0.633.
Regarding `CCCC(=O)Nc1ncnc2c1ncn2[C@@H]1O[C@@H]2COP(=O)(O)O[C@H]2[C@H]1OC(=O)CCC` (plate: M 23-24), the “tryptophan fluorescence intensity z-score” value is inactive: 0.561.
To `C=CC[C@@H]1/C=C(\C)C[C@H](C)C[C@H](OC)[C@H]2O[C@@](O)(C(=O)C(=O)N3CCCC[C@H]3C(=O)O[C@H](/C(C)=C/[C@@H]3CC[C@@H](O)[C@H](OC)C3)[C@H](C)[C@@H](O)CC1=O)[C@H](C)C[C@@H]2OC` (plate: M 9-10) belongs inactive: -1.1; to `CC(=O)OC1CCC23CC1(C)CCC2C(C)(C)CC3OC(C)=O` (stereo not given) (plate: M 21-22), inactive: 0.243; to `CC(C)CCC[C@@H](C)[C@H]1CC[C@H]2[C@@H]3CC=C4CC(=O)CC[C@]4(C)[C@H]3CC[C@]12C` (plate: M 23-24), inactive: 0.543.
For the compound `Cc1ncc([N+](=O)[O-])n1CCO` (plate: M 3-4), the “tryptophan fluorescence intensity z-score” value was inactive: -0.443.
As to `CCN(CC)CC#CCOC(=O)C(O)(c1ccccc1)C1CCCCC1` (stereo not given) (plate: M 11-12), the “tryptophan fluorescence intensity z-score” value is inactive: -0.657.
To `OC(CCN1CCCCC1)(c1ccccc1)C1CC2C=CC1C2` (stereo not given) (plate: M 11-12) belongs inactive: -0.419.
With `CCN(Cc1ccncc1)C(=O)C(CO)c1ccccc1` (stereo not given) (plate: M 5-6), the “tryptophan fluorescence intensity z-score” value is inactive: 0.587.
To `COc1ccc2cc(CCC(C)=O)ccc2c1` (plate: M 9-10) belongs inactive: 0.0636.
With `O=C(O)CCC(=O)OC[C@@H](NC(=O)C(Cl)Cl)[C@H](O)c1ccc([N+](=O)[O-])cc1` (plate: M 1-2), the “tryptophan fluorescence intensity z-score” value was inactive: 0.559.
To `CCCCCC(C)N` (stereo not given) (plate: M 5-6) belongs inactive: -0.0199; to `C[C@H]1[C@@H](O)O[C@@H]2O[C@@]3(C)CC[C@H]4[C@H](C)CC[C@@H]1[C@@]24OO3` (plate: M 21-22), inactive: 0.491.
To `COc1ccc(-c2oc3c(CC=C(C)C)c(O[C@@H]4O[C@H](CO)[C@@H](O)[C@H](O)[C@H]4O)cc(O)c3c(=O)c2O[C@@H]2O[C@@H](C)[C@H](O)[C@@H](O)[C@H]2O)cc1` (plate: M 19-20) belongs inactive: -0.0139; to `CCn1cc(C(=O)O)c(=O)c2ccc(C)nc21` (plate: M 5-6), inactive: 0.164; to `C#CCN(C)Cc1ccccc1` (plate: M 3-4), inactive: -0.173.
To `CC(=O)O[C@H]1CC[C@@]2(C)[C@H](CC[C@@H]3[C@@H]2CC[C@]2(C)[C@@H]4[C@H](C[C@@H]32)O[C@]2(CC[C@@H](C)CO2)[C@H]4C)C1` (plate: M 13-14) belongs inactive: 0.581.
On to `Oc1c(I)cc(I)c2cccnc12` (plate: M 3-4), for which the “tryptophan fluorescence intensity z-score” value was inactive: -0.157.
As to `CCN(CC)CCNC(=O)c1cc(S(C)(=O)=O)ccc1OC` (plate: M 7-8), the “tryptophan fluorescence intensity z-score” value was inactive: 0.169.
`O=C(CCCN1CC=C(n2c(=O)[nH]c3ccccc32)CC1)c1ccc(F)cc1` (plate: M 7-8): the “tryptophan fluorescence intensity z-score” value was inactive: 0.114.
As to `CC(=O)Oc1ccc2c(c1C(C)C)CCC1C(C)(C)CCC[C@]21C` (stereo not given in full) (plate: M 13-14), the “tryptophan fluorescence intensity z-score” value is inactive: 0.708.
To `NCCS(=O)(=O)O` (plate: M 11-12) belongs inactive: -0.533.
With `COc1cc2nc(N3CCN(C(=O)c4ccco4)CC3)nc(N)c2cc1OC` (plate: M 5-6), the “tryptophan fluorescence intensity z-score” value is inactive: -0.0588.
To `CCn1cc(C(=O)O)c(=O)c2cnc(N3CCNCC3)nc21` (plate: M 23-24) belongs inactive: 0.196.
To `Nc1nc(=O)c2[nH]c(=O)cnc2[nH]1` (plate: M 17-18) belongs inactive: 0.129; to `O=c1cc(-c2ccccc2)oc2cc(O)c(O)cc12` (plate: M 17-18), inactive: 0.334; to `Cc1ccc(S(=O)(=O)NC(=O)NN2CC3CCCC3C2)cc1` (stereo not given) (plate: M 23-24), inactive: 0.502.
Turning to `O=c1c(O)cccc2cc(O)c(O)c(O)c12` (plate: M 15-16), the “tryptophan fluorescence intensity z-score” value was inactive: 0.22.
Take `COc1ccc(-c2cc(=O)c3c(O)cc(O)cc3o2)cc1` (plate: M 15-16): the “tryptophan fluorescence intensity z-score” value is inactive: 0.277.
As for `CC(=O)N[C@@H](CC(=O)N[C@@H](CCC(=O)O)C(=O)O)C(=O)O` (plate: M 23-24), the “tryptophan fluorescence intensity z-score” value is inactive: 0.173.
Regarding `COc1ccc([C@H]2COc3c(ccc(O)c3OC)C2)c(OC)c1O` (plate: M 15-16), the “tryptophan fluorescence intensity z-score” value was inactive: 0.334.
For `COc1ccc2c(c1)OCc1c-2oc2cc(OC)ccc12` (plate: M 15-16), the “tryptophan fluorescence intensity z-score” value was inactive: -0.0035.
To `CN(C)CCN(Cc1cccs1)c1ccccn1` (plate: M 7-8) belongs inactive: 0.251; to `NC(=O)N1c2ccccc2C=Cc2ccccc21` (plate: M 1-2), inactive: 0.18; to `CCOc1cccc(C(=O)c2ccc(O)c(O)c2O)c1` (plate: M 15-16), inactive: -0.177.
To `O=c1cc(-c2ccc(O)cc2)oc2cc(O)cc(O)c12` (plate: M 15-16) belongs inactive: -0.024; to `CC(=O)OCC(COC(C)=O)OC(C)=O` (plate: M 5-6), inactive: -0.271.
On to `O=C(Cn1ccnc1[N+](=O)[O-])NCCO` (plate: M 13-14), for which the “tryptophan fluorescence intensity z-score” value is inactive: 0.217.
`COc1cc2ccc(=O)oc2c(OC)c1OC` (plate: M 13-14): the “tryptophan fluorescence intensity z-score” value is inactive: 0.3.
To `COc1ccc(-c2cc(=O)c3c(O)cc(O)cc3o2)cc1O` (plate: M 19-20) belongs inactive: 0.335; to `CC(C)NCC(O)COc1ccc(COCCOC(C)C)cc1` (stereo not given) (plate: M 11-12), inactive: -0.334; to `O=C1CN2Cc3c(ccc(Cl)c3Cl)N=C2N1` (plate: M 11-12), inactive: -0.295.
To `C#CCCCCCCCCCCCC(O)CC(O)CO` (stereo not given) (plate: M 21-22) belongs inactive: -0.321; to `CC[C@H]1OC(=O)[C@H](C)[C@@H](O[C@H]2C[C@@](C)(OC)[C@@H](O)[C@H](C)O2)[C@H](C)[C@@H](O[C@@H]2O[C@H](C)C[C@H](N(C)C)[C@H]2O)[C@](C)(O)C[C@@H](C)/C(=N\OCOCCOC)[C@H](C)[C@@H](O)[C@]1(C)O` (plate: M 13-14), inactive: 0.776.
Regarding `COc1c2ccoc2nc2c(OC)c(OCC(O)C(C)(C)O)ccc12` (stereo not given) (plate: M 19-20), the “tryptophan fluorescence intensity z-score” value is inactive: 0.295.
To `O=C([O-])[C@H]1/C(=C/CO)O[C@@H]2CC(=O)N21.[Li+]` (plate: M 9-10) belongs inactive: -0.109.
`Nc1nc(=O)c2nc(CNc3ccc(C(=O)N[C@@H](CCC(=O)O)C(=O)O)cc3)cnc2[nH]1` (plate: M 7-8): the “tryptophan fluorescence intensity z-score” value is inactive: -0.216.
With `C=CC[S+]([O-])C[C@H](N)C(=O)O` (mixture of isomers) (plate: M 19-20), the “tryptophan fluorescence intensity z-score” value was inactive: 0.743.
To `CC(=O)N[C@@H](CC(C)C)C(=O)O` (plate: M 21-22) belongs inactive: 0.93.
